Here are results for two molecules from paper PMC6779431.

Assay [1] deals with RTP2 fused with Lg and Sm at the C terminus (mouse) (UniProt Q80ZI2). Put plainly: split reporter; Nano-Glo Live Cell Assay in HEK293T cells, pBiT vectors, Lg and Sm fused at the C termini, 24 h after transfection.
Assay [2] deals with RTP4 fused with Lg and Sm at the C terminus (UniProt Q9ER80). The assay is described as above.

Results are given in words; binding and its absence hold for the method and conditions named. Binding seen in cells or lysates may run through a third protein. Some binding calls cover weakened binding; strength is not graded here. Tags and fused reporters may be left off the sequences shown.

B1: RTP2 fused with Lg and Sm at the C terminus (protein, UniProt Q80ZI2 1-223)
chain: MSTSLTTCEWKKVFYEKMEVAKPADSWELIIDPTLKPNELGPGWKQYLEQHASGRFHCSWCWHTWQSANVVILFHMHLDRAQRVGSVRMRVFKQLCYQCGTSRLDESSMLEENIEGLVDNLITSLREQCYDEDGGQYRIHVASRPDSGLHRSEFCEACQEGIVHWKPSEKLLEEDAAYTDASKKKGQAGFISSFFSFRWCLFWGTLCLVIVYLQFFRGRSGFL
B1: in assay [1], the binding entry is reported as “binds”.

B2: RTP4 fused with Lg and Sm at the C terminus (protein, UniProt Q9ER80 1-249)
chain: MLFPDDFSTWEQTFQELMQEEKPGAKWSLHLDKNIVPDGAALGWRQHQQTVLGRFQCSRCCRSWTSAQVMILCHMYPDTLKSQGQARMRIFGQKCQKCFGCQFETPKFSTEIIKRILNNLVNYILQRYYGHRKIALTSNASLGEKVTLDGPHDTRNCEACSLNSHGRCALAHKVKPPRSPSPLPKSSSPSKSCPPPPQTRNTDFGNKTFQDFGNRTFQGCREPPQREIEPPLFLFLSIAAFALFSLFTR
Consider B2, for which the binding entry in assay [2] is reported as “binds”.
